Reference: patent publication US12186310B2 (DAIICHI SANKYO COMPANY, LIMITED, priority 2012, dated 2025)

Experiment: general procedure: solution-phase peptide synthesis; N-hydroxysuccinimide / 1-ethyl-3-(3-dimethylaminopropyl)carbodiimide hydrochlori
Details: for conjugation yield: conjugation step
[1] = late stage modification step, trifluoroacetate (Example 2 Process 2)
[2] = trifluoroacetate (Example 2 Process 2)
[3] = late stage modification step, trifluoroacetate
[4] = coupling step, trifluoroacetate (Example 2 Process 2)

Substance: N-(3-sulfanylpropanoyl)glycylglycyl-L-phenylalanyl-N-(4-{[(1S,9S)-9-ethyl-5-fluoro-9-hydroxy-4-methyl-10,13-dioxo-2,3,9,10,13,15-hexahydro-1H,12H-benzo[de]pyrano[3′,4′:6,7]indolizino[1,2-b]quinolin-1-yl]amino}-4-oxobutyl)glycinamide
- step yield [1]: 66%

Substance: N-[6-(2,5-dioxo-2,5-dihydro-1H-pyrrol-1-yl)hexanoyl]glycylglycyl-L-phenylalanyl-N-(4-{[(1S,9S)-9-ethyl-5-fluoro-9-hydroxy-4-methyl-10,13-dioxo-2,3,9,10,13,15-hexahydro-1H,12H-benzo[de]pyrano[3′,4′:6,7]indolizino[1,2-b]quinolin-1-yl]amino}-4-oxobutyl)glycinamide
- step yield [1]: 76%

Substance: N-[19-(2,5-dioxo-2,5-dihydro-1H-pyrrol-1-yl)-17-oxo-4,7,10,13-tetraoxa-16-azanonadecan-1-oyl]glycylglycyl-L-phenylalanylglycyl-N-[(1S,9S)-9-ethyl-5-fluoro-9-hydroxy-4-methyl-10,13-dioxo-2,3,9,10,13,15-hexahydro-1H, 12H-benzo[de]pyrano[3′,4′:6,7]indolizino[1,2-b]quinolin-1-yl]-β-alaninamid
- conjugation yield [2]: 29%

Substance: N-(tert-butoxycarbonyl)glycylglycyl-L-phenylalanyl-N-(6-{[(1S,9S)-9-ethyl-5-fluoro-9-hydroxy-4-methyl-10,13-dioxo-2,3,9,10,13,15-hexahydro-1H,12H-benzo[de]pyrano[3′,4′:6,7]indolizino[1,2-b]quinolin-1-yl]amino}-6-oxohexyl)glycinamide
- conjugation yield [2]: 91%

Substance: Glycylglycyl-L-phenylalanyl-N-(4-{[(1S,9S)-9-ethyl-5-fluoro-9-hydroxy-4-methyl-10,13-dioxo-2,3,9,10,13,15-hexahydro-1H,12H-benzo[de]pyrano[3′,4′:6,7]indolizino[1,2-b]quinolin-1-yl]amino}-4-oxobutyl)glycinamide trifluoroacetate
- step yield [3]: 99%

Substance: N-[6-(2,5-dioxo-2,5-dihydro-1H-pyrrol-1-yl)hexanoyl]glycylglycyl-L-phenylalanyl-N-[2-(2-{[(1S,9S)-9-ethyl-5-fluoro-9-hydroxy-4-methyl-10,13-dioxo-2,3,9,10,13,15-hexahydro-1H,12H-benzo[de]pyrano[3′,4′:6,7]indolizino[1,2-b]quinolin-1-yl]amino}-2-oxoethoxy)ethyl]glycinamide
- step yield [1]: 62%

Substance: N-(bromoacetyl)-β-alanylglycylglycyl-L-phenylalanyl-glycinamide (Process 3, h-0124)
- step yield [1]: 40%

Substance: N-[6-(2,5-dioxo-2,5-dihydro-1H-pyrrol-1-yl)hexanoyl]glycylglycyl-L-phenylalanyl-N-[(2-{[(1S,9S)-9-ethyl-5-fluoro-9-hydroxy-4-methyl-10,13-dioxo-2,3,9,10,13,15-hexahydro-1H,12H-benzo[de]pyrano[3′,4′:6,7]indolizino[1,2-b]quinolin-1-yl]amino}-2-oxoethoxy)methyl]glycinamide
- conjugation yield [2]: 82%
- step yield [4]: 31%
- step yield [1]: 38%

Substance: Glycylglycyl-L-phenylalanyl-N-[2-(2-{[(1S,9S)-9-ethyl-5-fluoro-9-hydroxy-4-methyl-10,13-dioxo-2,3,9,10,13,15-hexahydro-1H,12H-benzo[de]pyrano[3′,4′:6,7]indolizino[1,2-b]quinolin-1-yl]amino}-2-oxoethoxy)ethyl]glycinamide trifluoroacetate
- step yield [3]: 92%

Substance: N-{8-[(2,5-dioxopyrrolidin-1-yl)oxy]-8-oxooctanoyl}glycylglycyl-L-phenylalanyl-N-(4-{[(1S,9S)-9-ethyl-5-fluoro-9-hydroxy-4-methyl-10,13-dioxo-2,3,9,10,13,15-hexahydro-1H, 12H-benzo[de]pyrano[3′,4′:6,7]indolizino[1,2-b]quinolin-1-yl]amino}-4-oxobutyl)glycinamide
- step yield [1]: 71%

Substance: N-{3-[2-(2-{[3-(2,5-dioxo-2,5-dihydro-1H-pyrrol-1-yl)propanoyl]amino})ethoxy]propanoyl}glycylglycyl-L-phenylalanylglycyl-N-[(1S,9S)-9-ethyl-5-fluoro-9-hydroxy-4-methyl-10,13-dioxo-2,3,9,10,13,15-hexahydro-1H,12H-benzo[de]pyrano[3′,4′:6,7]indolizino[1,2-b]quinolin-1-yl]-O-alaninamide
- conjugation yield [2]: 31%

Substance: Glycylglycyl-L-phenylalanyl-N-[(carboxymethoxy)methyl]glycinamide
- step yield [1]: 82%

Substance: N-(tert-butoxycarbonyl)glycylglycyl-L-phenylalanyl-N-(4-{[(1S,9S)-9-ethyl-5-fluoro-9-hydroxy-4-methyl-10,13-dioxo-2,3,9,10,13,15-hexahydro-1H,12H-benzo[de]pyrano[3′,4′:6,7]indolizino[1,2-b]quinolin-1-yl]amino}-4-oxobutyl)glycinamide
- conjugation yield [2]: 73%

Substance: N-(tert-butoxycarbonyl)glycylglycyl-L-phenylalanyl-N-[2-(2-{[(1S,9S)-9-ethyl-5-fluoro-9-hydroxy-4-methyl-10,13-dioxo-2,3,9,10,13,15-hexahydro-1H,12H-benzo[de]pyrano[3′,4′:6,7]indolizino[1,2-b]quinolin-1-yl]amino}-2-oxoethoxy)ethyl]glycinamide
- conjugation yield [2]: 95%

Substance: N-[6-(2,5-dioxo-2,5-dihydro-1H-pyrrol-1-yl)hexanoyl]glycylglycyl-L-phenylalanyl-N-[(carboxymethoxy)methyl]glycinamide
- step yield [1]: 71%

Substance: β-Alanylglycylglycyl-L-phenylalanyl-glycinamide (Process 2, h-0123)
- step yield [4]: 67%

Substance: N-[3-(2,5-dioxo-2,5-dihydro-1H-pyrrol-1-yl)propanoyl]glycylglycyl-L-phenylalanyl-N-(4-{[(1S,9S)-9-ethyl-5-fluoro-9-hydroxy-4-methyl-10,13-dioxo-2,3,9,10,13,15-hexahydro-1H,12H-benzo[de]pyrano[3′,4′:6,7]indolizino[1,2-b]quinolin-1-yl]amino}-4-oxobutyl)glycinamide
- step yield [1]: 73%

Substance: Glycylglycyl-L-phenylalanylglycyl-N-[(1S,9S)-9-ethyl-5-fluoro-9-hydroxy-4-methyl-10,13-dioxo-2,3,9,10,13,15-hexahydro-1H,12H-benzo[de]pyrano[3′,4′:6,7]indolizino[1,2-b]quinolin-1-yl]-β-alaninamide trifluoroacetate
- step yield [3]: 92%

Substance: N-(tert-butoxycarbonyl)glycylglycyl-L-phenylalanylglycyl-N-[(1S,9S)-9-ethyl-5-fluoro-9-hydroxy-4-methyl-10,13-dioxo-2,3,9,10,13,15-hexahydro-1H, 12H-benzo[de]pyrano[3′,4′:6,7]indolizino[1,2-b]quinolin-1-yl]-β-alaninamide
- conjugation yield [2]: 87%
